In patent US12303590B2, “Method of treating osteoarthritis” (ORTHOTROPHIX, INC., priority 2018, dated 2025):
“Also recorded” adds a separate entry of the source. At least one peptide structure holds a part that was inferred or is arguable (an end, a ring closure or a residue). Peptide text beside a SMILES is read from it.

Test system: subjects with bilateral patello-femoral knee osteoarthritis
Experiment: Randomized double-blind placebo-controlled study of TPX-100 in patients with osteoarthritis of the knees (Example 1)
Format: in vivo, human
Conditions: for Knee function measured by KOOS ADL, Index Knees as compared to Control Knees / Knee function measured by WOMAC Function subscale, Index Knees as compared to Control Knees: 6 and 12 months
Experimental: A multicenter, randomized double-blind, placebo-controlled study was designed to investigate the safety, tolerability, pharmacokinetics, and efficacy of TPX-100 administered in four weekly doses in subjects with bilateral patello-femoral knee osteoarthritis. The study was conducted under an open IND (investigational new drug application) at CDER (Center for Drug Evaluation and Research) of the U.S. FDA (The United States Food and Drug Administration) in compliance with GCP (Good Clinical Practice) and ICH (International Conference on Harmonization of Technical Requirements for Registration of Pharmaceuticals for Human Use) guidelines. Eighteen (18) orthopedic, rheumatologic and family practice centers in the U.S. participated in the study.
The study was divided into Part A and Part B. The Part A was designed to evaluate safety of intra-articular (I.A.) administration of TPX-100 at different dosing levels (20, 50, 100, or 200 mg per injection in sequential cohorts) in the subjects with osteoarthritis of the knees and to select a dose for Part B. Part B was to evaluate safety and efficacy of the selected dose of TPX-100.
Subjects in Part A were enrolled in sequential cohorts and randomized to receive 20, 50, 100 or 200 mg of TPX-100 in one knee (Index Knee) and identical placebo in the contralateral (Control) knee. Subjects, sites and sponsor and central MRI readers were blinded as to treatment assignment. A Safety Review Committee (SRC) evaluated safety in each dosing cohort. The SRC assessed safety and determined whether the next higher dosing regimen could be enrolled. All dosing cohorts in Part A were completed and analyzed with regard to safety prior to dose selection and initiation of Part B.
Part A included four (4) intra-articular (I.A.) injections, one per week, in sequential dosing cohorts of 20, 50, 100 and 200 mg TPX-100 versus placebo. Six (6) subjects were enrolled in 20, 50, and 100 mg cohorts, respectively, and nine (9) subjects were enrolled in the 200 mg cohort.
The 200 mg dose was selected for Part B based on safety review and the approval of the SRC. […] Per the Statistical Analysis Plan, these subjects were combined with the nine subjects in the 200 mg cohort of Part A for the efficacy analysis. In total, data from 93 subjects was analyzed for drug efficacy, each of whom received 4 once-weekly injections of TPX-100, 200 mg/dose, in the Index knee and identical placebo in the contralateral knee, as randomly assigned.
In both Part A and Part B, subjects received 4, once-weekly doses of active drug in the knee randomized to active drug in the Index knee and placebo in the contralateral (Control) knee, delivered by the intra-articular route. No other doses of drug or placebo were administered. All subjects visited their respective clinical sites at 3, 6, and 12 months after the first dosing for their safety and efficacy assessments.
If all clinical inclusion and exclusion criteria were met, MRIs of both knees were obtained and evaluated by a central reader to determine the ICRS grade (gICRS) of each knee as the final screening criterion. If the cartilage of patello-femoral compartment in both knees fell within ICRS grades 1-3, or 4 with only small focal defects no greater than 1 cm, the subject was registered. The randomization center randomized each subject to either “Right knee active” or “Left knee active”. The active knee was to receive TPX-100 and the contralateral knee was to receive identical placebo.
For enrolled subjects, there was within-subject randomization, such that one knee received active drug injections, and the contralateral knee received identical placebo injections. As two knees within a person form a matched set, the effects of individual-level confounders (e.g. level of activity, genetic and epigenetic factors, pain threshold) are eliminated, increasing the power of the study to detect a treatment effect if one is present. […]

[1] = 200 mg intra-articular, 4 once-weekly doses
[2] = 200 mg intra-articular, 4 once-weekly doses, listed as peptide of SEQ ID No. 1
[3] = 200 mg intra-articular, 4 once-weekly doses, 12 months
[4] = Bilateral Tibiofemoral OA Subjects, Month 6, Entire TF Cartilage, Index Knees, N 61
[5] = Bilateral Tibiofemoral OA Subjects, Month 6, Femoral Condyle Cartilage, Index Knees, N 61
[6] = Bilateral Tibiofemoral OA Subjects, Month 6, Lateral TF Cartilage, Index Knees, N 60
[7] = Bilateral Tibiofemoral OA Subjects, Month 6, Medial TF Cartilage, Index Knees, N 61
[8] = Bilateral Tibiofemoral OA Subjects, Month 12, Entire TF Cartilage, Index Knees, N 61
[9] = Bilateral Tibiofemoral OA Subjects, Month 12, Femoral Condyle Cartilage, Index Knees, N 61
[10] = Bilateral Tibiofemoral OA Subjects, Month 12, Lateral TF Cartilage, Index Knees, N 60
[11] = Bilateral Tibiofemoral OA Subjects, Month 12, Medial TF Cartilage, Index Knees, N 61
[12] = Month 6, Entire TF Cartilage, Index Knees, N 85

CC[C@H](C)[C@H](NC(=O)[C@H](CC(=O)O)NC(=O)[C@H](CC(N)=O)NC(=O)[C@H](CC(=O)O)NC(=O)CNC(=O)[C@H](CCCNC(=N)N)NC(=O)[C@H](CCC(=O)O)NC(=O)[C@H](CCC(N)=O)NC(=O)[C@H](CC(C)C)NC(=O)[C@H](CC(=O)O)NC(=O)[C@@H](N)[C@@H](C)O)C(=O)N[C@@H](CO)C(=O)N1CCC[C@H]1C(=O)N[C@@H](Cc1ccccc1)C(=O)N[C@@H](CO)C(=O)NCC(=O)N[C@@H](CC(=O)O)C(=O)NCC(=O)N[C@@H](CCC(N)=O)C(=O)N1CCC[C@H]1C(=O)N[C@@H](Cc1ccccc1)C(=O)N[C@@H](CCCCN)C(=O)N[C@@H](CC(=O)O)C(N)=O [TPX-100] (H-TDLQERGDNDISPFSGDGQPFKD-NH2; N-terminus assumed)
Knee function measured by KOOS ADL, Index Knees as compared to Control Knees [1]: clinically meaningful and statistically significant (p<0.05) improvements | Knee function measured by WOMAC Function subscale, Index Knees as compared to Control Knees [1]: the same robust improvement | Knee function measured by KOOS ADL, Index Knees as compared to Control Knees [2]: clinically meaningful and statistically significant (p=0.008) improvement | Knee function measured by WOMAC Function subscale, Index Knees as compared to Control Knees [2]: clinically meaningful and statistically significant (p=0.008) improvement | KOOS Sports and Recreation, Index Knees as compared to Control Knees (200 mg intra-articular, 4 once-weekly doses, 6 months): clinically meaningful and statistically significant improvements | KOOS Knee-related QOL, Index Knees as compared to Control Knees [3]: clinically meaningful and statistically significant improvements | KOOS Pain subscale, Index Knees as compared to Control Knees [3]: clinically meaningful improvement in Index Knees as compared to Control Knees at 12 months, with a trend towards statistical significance (p<0.09); also recorded: only a statistical trend (p<0.09) of improvement | Pain Frequency, Index Knees as compared to Control Knees [3]: significantly reduced (p<0.05); also recorded: statistically significant improvement | Pain going up or down stairs, Index Knees as compared to Control Knees [3]: significantly improved (p<0.05); also recorded: statistically significant improvement | WOMAC Pain domain, Index Knees compared with Control knees [3]: a clinically meaningful improvement in Index Knees at 12 months compared with Control knees, although the difference did not reach statistical significance | 3D periarticular bone shape change of femur (B score), Index Knees compared to Control Knees (6 and 12 months (p=0.005 and 0.007)): statistically significant decrease in shape change; also recorded: statistically significant (p<0.05) difference in favor of Index Knees | Patello-femoral (patella) cartilage thickness change from baseline by MRI, Index vs. Control Knees (primary endpoint) (6 months (primary) or 12 months): no statistically significant difference; also recorded: no measurable difference | Medial femur periarticular bone area increase, Index Knees as compared to Control Knees (6 months, trend toward statistical significance (p=0.08)): less periarticular bone area increase; also recorded: less pathological bone area increase | Overall tibiofemoral cartilage thickness change from baseline, Index vs. Control Knees (6 or 12 months): not measurably different | Improvement of pain frequency score in the responder group (12 months, baseline score 3 (daily pain)): approximately 1.5 points | Pearson Correlation, Reduction of Pathological Femur 3D Bone Shape Change vs. TF Cartilage Thickening/Stabilization [4]: 0.093 | Spearman Correlation, Reduction of Pathological Femur 3D Bone Shape Change vs. TF Cartilage Thickening/Stabilization [4]: 0.111 | Pearson Correlation, Reduction of Pathological Femur 3D Bone Shape Change vs. TF Cartilage Thickening/Stabilization [5]: 0.057 | Spearman Correlation, Reduction of Pathological Femur 3D Bone Shape Change vs. TF Cartilage Thickening/Stabilization [5]: 0.093 | Pearson Correlation, Reduction of Pathological Femur 3D Bone Shape Change vs. TF Cartilage Thickening/Stabilization [6]: 0.047 | Spearman Correlation, Reduction of Pathological Femur 3D Bone Shape Change vs. TF Cartilage Thickening/Stabilization [6]: 0.118 | Pearson Correlation, Reduction of Pathological Femur 3D Bone Shape Change vs. TF Cartilage Thickening/Stabilization [7]: 0.084 | Spearman Correlation, Reduction of Pathological Femur 3D Bone Shape Change vs. TF Cartilage Thickening/Stabilization [7]: 0.117 | Pearson Correlation, Reduction of Pathological Femur 3D Bone Shape Change vs. TF Cartilage Thickening/Stabilization [8]: 0.296 | Spearman Correlation, Reduction of Pathological Femur 3D Bone Shape Change vs. TF Cartilage Thickening/Stabilization [8]: 0.366 | Pearson Correlation, Reduction of Pathological Femur 3D Bone Shape Change vs. TF Cartilage Thickening/Stabilization [9]: 0.282 | Spearman Correlation, Reduction of Pathological Femur 3D Bone Shape Change vs. TF Cartilage Thickening/Stabilization [9]: 0.306 | Pearson Correlation, Reduction of Pathological Femur 3D Bone Shape Change vs. TF Cartilage Thickening/Stabilization [10]: 0.173 | Spearman Correlation, Reduction of Pathological Femur 3D Bone Shape Change vs. TF Cartilage Thickening/Stabilization [10]: 0.218 | Pearson Correlation, Reduction of Pathological Femur 3D Bone Shape Change vs. TF Cartilage Thickening/Stabilization [11]: 0.329 | Spearman Correlation, Reduction of Pathological Femur 3D Bone Shape Change vs. TF Cartilage Thickening/Stabilization [11]: 0.393 | Pearson Correlation, Reduction of Pathological Femur 3D Bone Shape Change vs. TF Cartilage Thickening/Stabilization [12]: 0.202 | Spearman Correlation, Reduction of Pathological Femur 3D Bone Shape Change vs. TF Cartilage Thickening/Stabilization [12]: 0.189 | Pearson Correlation, Tibiofemoral Cartilage Thickening/Stabilization vs. Knee Function Measured by KOOS ADL (Month 6, Entire TF, Index Knees, N 67): 0.122
